These results are taken from PMC5012265.

Results are given in words; binding and its absence hold for the method and conditions named. A result given as binding can be weak or reduced; the word gives no strength.

Assay in all cases: two-hybrid; GAL4-based Matchmaker Two-Hybrid System 3 (Clontech); DNA-binding domain fusions (pGBK-T7) in Y2HGOLD mated with activation domain fusions (pGAD-T7) in Y187; growth on SD-Trp-Leu-His-Ade and blue colour on SD-Trp-Leu-His-Ade + X-alpha-Gal
The target of assay [1] is NlbHLH1 (bHLH transcription factor of Nelumbo lutea), GAL4 DNA-binding domain fusion (Nelumbo lutea).
The target in assay [2] is NnTTG1 (WD40 protein of Nelumbo nucifera), GAL4 DNA-binding domain fusion (Nelumbo nucifera).
Assay [3] deals with NnbHLH1 (bHLH transcription factor of Nelumbo nucifera), GAL4 DNA-binding domain fusion (Nelumbo nucifera).

Turning to “NnMYB5 (R2R3-MYB transcription factor of Nelumbo nucifera), GAL4 activation domain fusion (from UniProt A0A1L2BPG4)”, the binding entry in assay [1], in assay [2] and in assay [3] was “binds” in each case.
Consider “NnTTG1 (WD40 protein of Nelumbo nucifera), GAL4 activation domain fusion (from UniProt A0A1L2BPH2)”, for which the binding result in assay [1] and in assay [3] was “binds” in each case.
